Assay results reported in publication PMC3514159.
No constants are given. Whether binding was seen depends on the method and setting. Binding seen in cells or lysates may run through a third protein. Some entries that bind do so weakly or less than the wild type.

Protein sequences, listed by entry. Tags and fused reporters are not part of them.
UniProt Q9NR12: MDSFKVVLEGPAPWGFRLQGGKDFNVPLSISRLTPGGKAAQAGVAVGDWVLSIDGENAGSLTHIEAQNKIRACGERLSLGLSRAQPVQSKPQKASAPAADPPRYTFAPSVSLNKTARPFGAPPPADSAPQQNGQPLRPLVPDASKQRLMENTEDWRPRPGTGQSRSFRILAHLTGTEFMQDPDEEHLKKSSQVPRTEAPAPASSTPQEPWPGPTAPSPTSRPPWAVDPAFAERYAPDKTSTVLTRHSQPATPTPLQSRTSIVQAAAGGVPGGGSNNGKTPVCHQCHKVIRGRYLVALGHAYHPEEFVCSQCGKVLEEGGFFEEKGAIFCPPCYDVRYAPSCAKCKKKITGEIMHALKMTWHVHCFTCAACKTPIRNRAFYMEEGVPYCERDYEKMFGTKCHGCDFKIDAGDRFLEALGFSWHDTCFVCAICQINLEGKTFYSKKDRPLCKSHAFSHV
UniProt P09022: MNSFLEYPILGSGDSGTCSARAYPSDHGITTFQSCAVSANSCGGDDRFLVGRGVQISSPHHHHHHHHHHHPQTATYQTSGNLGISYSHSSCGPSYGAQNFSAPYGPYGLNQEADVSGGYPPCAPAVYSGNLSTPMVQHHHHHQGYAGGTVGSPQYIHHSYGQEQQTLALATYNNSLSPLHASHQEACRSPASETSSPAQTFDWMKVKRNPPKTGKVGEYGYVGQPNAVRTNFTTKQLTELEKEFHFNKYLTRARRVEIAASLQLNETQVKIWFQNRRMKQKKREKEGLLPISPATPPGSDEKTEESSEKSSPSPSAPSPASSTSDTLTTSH

Experiments:
Assay in all cases: pull-down; GST-hORF and FLAG-Hoxa1 co-expressed in COS7 or HEK293T; cleared lysate (Tris-HCl pH7.5 20mM, NaCl 120mM, EDTA 0.5mM, NP40 0.5%, glycerol 10%) overnight on glutathione-agarose beads, 3 washes; anti-FLAG western blot
[1] = target: T1, NEDD4 binding protein 2-like 2 (human) (UniProt Q92802)
T1 sequence: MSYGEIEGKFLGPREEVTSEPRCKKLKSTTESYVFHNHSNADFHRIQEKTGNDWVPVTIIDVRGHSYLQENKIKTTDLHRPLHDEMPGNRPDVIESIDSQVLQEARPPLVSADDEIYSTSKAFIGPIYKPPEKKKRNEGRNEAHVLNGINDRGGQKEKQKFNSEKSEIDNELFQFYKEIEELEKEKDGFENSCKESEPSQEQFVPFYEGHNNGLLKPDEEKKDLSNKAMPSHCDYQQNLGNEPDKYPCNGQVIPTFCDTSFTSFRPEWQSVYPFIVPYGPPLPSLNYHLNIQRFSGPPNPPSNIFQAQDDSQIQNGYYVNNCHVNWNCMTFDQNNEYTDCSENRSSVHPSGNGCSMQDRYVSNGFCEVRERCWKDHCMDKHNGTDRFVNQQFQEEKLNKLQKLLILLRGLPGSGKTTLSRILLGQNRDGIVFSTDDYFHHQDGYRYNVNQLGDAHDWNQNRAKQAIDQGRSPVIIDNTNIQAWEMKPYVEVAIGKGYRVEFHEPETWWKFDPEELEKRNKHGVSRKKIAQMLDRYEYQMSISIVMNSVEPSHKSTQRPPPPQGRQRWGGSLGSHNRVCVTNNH

[2] = target: PDZ and LIM domain 7 (human) (UniProt Q9NR12)
[3] = target: RNA binding protein with multiple splicing (human) (UniProt Q93062)
[4] = target: T2, TNF receptor-associated factor 2 (human) (UniProt Q12933)
T2 sequence: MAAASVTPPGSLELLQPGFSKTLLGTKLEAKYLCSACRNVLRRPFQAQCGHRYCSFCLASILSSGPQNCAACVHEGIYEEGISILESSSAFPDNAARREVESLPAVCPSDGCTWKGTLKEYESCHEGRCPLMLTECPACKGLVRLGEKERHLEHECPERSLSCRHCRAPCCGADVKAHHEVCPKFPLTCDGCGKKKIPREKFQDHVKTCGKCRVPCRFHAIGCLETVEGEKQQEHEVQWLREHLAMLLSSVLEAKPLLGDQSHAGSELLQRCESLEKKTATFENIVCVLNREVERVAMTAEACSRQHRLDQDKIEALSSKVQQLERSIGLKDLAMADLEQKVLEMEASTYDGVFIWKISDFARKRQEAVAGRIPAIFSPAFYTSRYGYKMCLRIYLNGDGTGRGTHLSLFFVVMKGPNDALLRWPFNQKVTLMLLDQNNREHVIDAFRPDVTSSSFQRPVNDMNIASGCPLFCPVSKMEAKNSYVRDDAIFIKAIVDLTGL

[5] = target: T3, chromosome 1 open reading frame 94 (human) (UniProt Q6P1W5)
T3 sequence: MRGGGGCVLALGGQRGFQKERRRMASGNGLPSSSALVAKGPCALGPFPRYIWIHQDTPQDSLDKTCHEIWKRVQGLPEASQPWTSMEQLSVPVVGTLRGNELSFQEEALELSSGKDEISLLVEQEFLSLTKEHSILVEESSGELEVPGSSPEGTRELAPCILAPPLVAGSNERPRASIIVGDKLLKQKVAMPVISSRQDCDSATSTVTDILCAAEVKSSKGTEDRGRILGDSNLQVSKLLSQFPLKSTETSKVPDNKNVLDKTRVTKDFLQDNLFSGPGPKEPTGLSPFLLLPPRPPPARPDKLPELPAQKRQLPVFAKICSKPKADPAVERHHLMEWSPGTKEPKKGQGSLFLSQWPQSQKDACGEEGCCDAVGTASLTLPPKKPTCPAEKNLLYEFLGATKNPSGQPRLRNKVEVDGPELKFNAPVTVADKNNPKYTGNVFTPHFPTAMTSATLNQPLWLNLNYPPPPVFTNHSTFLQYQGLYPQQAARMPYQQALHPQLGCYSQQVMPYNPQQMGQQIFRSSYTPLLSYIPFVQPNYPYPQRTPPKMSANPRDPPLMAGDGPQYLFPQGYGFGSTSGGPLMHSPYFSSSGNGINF

[6] = target: T4, family with sequence similarity 154, member A (human) (UniProt Q8IYX7)
T4 sequence: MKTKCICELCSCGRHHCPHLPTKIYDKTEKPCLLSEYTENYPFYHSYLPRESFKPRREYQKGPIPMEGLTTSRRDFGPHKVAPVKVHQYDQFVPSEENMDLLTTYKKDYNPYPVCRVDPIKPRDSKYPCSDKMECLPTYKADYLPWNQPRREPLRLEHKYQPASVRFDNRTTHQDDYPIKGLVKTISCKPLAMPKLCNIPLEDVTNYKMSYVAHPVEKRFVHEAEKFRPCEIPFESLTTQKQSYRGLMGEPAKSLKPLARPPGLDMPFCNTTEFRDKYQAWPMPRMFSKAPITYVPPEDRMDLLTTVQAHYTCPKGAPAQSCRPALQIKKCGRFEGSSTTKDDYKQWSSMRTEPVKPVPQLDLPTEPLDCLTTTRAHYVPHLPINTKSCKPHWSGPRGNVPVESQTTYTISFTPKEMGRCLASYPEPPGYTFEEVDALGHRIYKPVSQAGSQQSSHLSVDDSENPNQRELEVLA

Measured: binding

FLAG-Hoxa1 (from UniProt P09022 1-331)
binds: all assays above
